Strings that start with PEPTIDE1 are HELM notation: dots part the residues, brackets hold end groups and non-standard residues.
Experiment: peptide made by a vendor (Fmoc solid-phase peptide synthesis)
Settings: whole synthesis

## PEPTIDE1{K.W.K.S.F.I.K.K.L.T.K.K.F.L.H.S.A.K.K.F.[am]}$$$$V2.0
  final HPLC purity: >90%

— paper PMC10126264 (Frontiers in Cellular and Infection Microbiology, 2023)
